Results: PMC8176713
Results are given in words; binding and its absence hold for the method and conditions named. In cells and extracts the contact can be indirect. Some binding calls cover weakened binding; strength is not graded here. Where a sequence is shown, tags or fusion partners need not be part of it.

T1: Hfl1-GFP W371A I375A (S. cerevisiae) (UniProt P36142)
T1 sequence: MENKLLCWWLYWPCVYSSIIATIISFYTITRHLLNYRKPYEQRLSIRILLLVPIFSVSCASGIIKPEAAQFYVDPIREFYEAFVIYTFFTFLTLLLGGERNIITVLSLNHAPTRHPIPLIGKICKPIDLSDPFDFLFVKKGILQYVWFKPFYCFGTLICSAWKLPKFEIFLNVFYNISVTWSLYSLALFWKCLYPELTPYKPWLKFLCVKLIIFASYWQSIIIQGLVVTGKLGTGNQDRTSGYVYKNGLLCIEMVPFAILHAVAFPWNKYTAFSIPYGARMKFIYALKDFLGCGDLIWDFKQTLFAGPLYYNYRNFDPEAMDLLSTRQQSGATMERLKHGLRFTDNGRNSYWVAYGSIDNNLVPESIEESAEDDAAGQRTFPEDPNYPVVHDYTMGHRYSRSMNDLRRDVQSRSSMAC

T2: Hfl1-GFP D384A (S. cerevisiae) (UniProt P36142)
T2 sequence: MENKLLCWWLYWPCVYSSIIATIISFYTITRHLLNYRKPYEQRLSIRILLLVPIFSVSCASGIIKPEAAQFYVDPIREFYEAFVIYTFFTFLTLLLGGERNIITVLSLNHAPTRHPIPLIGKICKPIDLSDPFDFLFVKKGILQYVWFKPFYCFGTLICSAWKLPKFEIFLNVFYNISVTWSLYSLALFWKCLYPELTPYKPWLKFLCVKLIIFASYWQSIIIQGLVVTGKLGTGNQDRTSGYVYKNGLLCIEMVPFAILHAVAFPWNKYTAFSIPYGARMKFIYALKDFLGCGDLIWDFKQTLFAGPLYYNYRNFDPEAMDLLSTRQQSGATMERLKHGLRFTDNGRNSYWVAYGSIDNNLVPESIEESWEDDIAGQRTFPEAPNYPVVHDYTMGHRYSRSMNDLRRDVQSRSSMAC

T3: Hfl1-GFP (S. cerevisiae) (UniProt P36142)
T3 sequence: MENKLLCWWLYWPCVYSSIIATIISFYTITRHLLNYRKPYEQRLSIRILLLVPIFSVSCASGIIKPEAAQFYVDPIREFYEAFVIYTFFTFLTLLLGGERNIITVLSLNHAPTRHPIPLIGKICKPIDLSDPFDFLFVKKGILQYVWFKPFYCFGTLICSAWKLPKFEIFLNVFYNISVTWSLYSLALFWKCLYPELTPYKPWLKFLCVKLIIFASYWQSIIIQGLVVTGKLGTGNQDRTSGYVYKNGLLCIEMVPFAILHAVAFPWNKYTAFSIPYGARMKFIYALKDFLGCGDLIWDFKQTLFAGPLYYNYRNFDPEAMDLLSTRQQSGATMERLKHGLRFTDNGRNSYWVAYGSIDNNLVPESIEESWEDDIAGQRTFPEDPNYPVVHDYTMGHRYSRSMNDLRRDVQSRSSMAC

T4: Hfl1-GFP Y387A (S. cerevisiae) (UniProt P36142)
T4 sequence: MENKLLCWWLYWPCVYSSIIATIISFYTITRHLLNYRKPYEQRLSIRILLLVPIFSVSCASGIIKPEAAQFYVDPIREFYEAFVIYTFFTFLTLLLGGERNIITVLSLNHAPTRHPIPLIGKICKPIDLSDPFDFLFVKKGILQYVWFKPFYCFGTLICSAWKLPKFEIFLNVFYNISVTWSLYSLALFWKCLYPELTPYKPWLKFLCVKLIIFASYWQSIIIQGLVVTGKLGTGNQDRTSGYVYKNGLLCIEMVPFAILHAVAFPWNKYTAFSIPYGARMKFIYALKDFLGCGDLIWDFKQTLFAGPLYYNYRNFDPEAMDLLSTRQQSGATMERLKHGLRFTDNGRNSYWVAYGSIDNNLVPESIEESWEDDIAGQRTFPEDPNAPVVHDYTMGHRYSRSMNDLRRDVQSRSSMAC


Columns and labels:
Assay in all cases: co-IP; lysates of log phase yeast co-expressing Hfl1-GFP (TEF1 promoter) and 8 V5-Atg8 (own promoter) loaded on anti-GFP affinity resin, 4C, 2 h; lysis buffer 50 mM Tris-Cl, 150 mM NaCl, 10% glycerol, 1 mM EDTA, 1 mM PMSF, 0.2% NP-40, pH 7.4; immunoblot
[1] = biological target: T1, Hfl1-GFP W371A I375A (S. cerevisiae)
[2] = biological target: T2, Hfl1-GFP D384A (S. cerevisiae)
[3] = biological target: T3, Hfl1-GFP (S. cerevisiae)
[4] = biological target: T4, Hfl1-GFP Y387A (S. cerevisiae)

Row | Binder | binding [1] | binding [2] | binding [3] | binding [4]
1 | 8 V5-Atg8 (protein, UniProt P38182 1-117) MKSTFKSEYPFEKRKAESERIADRFKNRIPVICEKAEKSDIPEIDKRKYLVPADLTVGQFVYVIRKRIMLPPEKAIFIFVNDTLPPTAALMSAIYQEHKDKDGFLYVTYSGENTFGR | binds | binds | binds | binds
2 | 8 V5-Atg8 P85A P86A (protein, UniProt P38182 1-117) MKSTFKSEYPFEKRKAESERIADRFKNRIPVICEKAEKSDIPEIDKRKYLVPADLTVGQFVYVIRKRIMLPPEKAIFIFVNDTLAATAALMSAIYQEHKDKDGFLYVTYSGENTFGR |  |  | binds | 
3 | 8 V5-Atg8 T56A R65A T87A (protein, UniProt P38182 1-117) MKSTFKSEYPFEKRKAESERIADRFKNRIPVICEKAEKSDIPEIDKRKYLVPADLAVGQFVYVIAKRIMLPPEKAIFIFVNDTLPPAAALMSAIYQEHKDKDGFLYVTYSGENTFGR |  |  | binds weakly | 
4 | 8 V5-Atg8 T56A T87A (protein, UniProt P38182 1-117) MKSTFKSEYPFEKRKAESERIADRFKNRIPVICEKAEKSDIPEIDKRKYLVPADLAVGQFVYVIRKRIMLPPEKAIFIFVNDTLPPAAALMSAIYQEHKDKDGFLYVTYSGENTFGR |  |  | binds | 
